# Literature values as cited in patent US20200323843A1 (IRR, Inc., priority 2010, published 2020).
# Settings: in vivo; cited from earlier work
compound,measurement,value
"O=C(O)COCCN1CCN([C@H](c2ccccc2)c2ccc(Cl)cc2)CC1 [Levocetirizine, levocetirizine]",time to peak plasma level,0.9 h
